Laboratory results: PubChem BioAssay AID652272 (Drosophila RNAi Screening Center, 2013)

Aim: 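Genome-wide knock-down search for components of Hedgehog signalling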 (primary screen)
Cell system: Drosophila clone 8 (Cl8) cells
Knock-down reagent: long dsRNA against Drosophila genes
Measured: 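Firefly light from a Hedgehog-responsive ptc promoter reporter and Renilla reference light, both read on a plate reader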
Reading the numbers: firefly Hh reporter signal: higher = more ptc reporter light; Renilla reference signal: higher = more Renilla control light
Call rule: 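Called a hit if the two-replicate mean z-score lies below -2 or above +3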
Meaning of the calls: active = hit: reporter lowered or raised; inactive = not a hit
The screen tested about 21,000 reagents; shown is a random part of those with a known target gene and a result. Over the whole deposit, 503 (2.4%) got an active call. 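Raw plate light values, not normalised; calls rest on replicate z-scores that were not deposited; hits include reporter decreases as well as increases.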 Entries without a mark were called inactive. A plus sign joins genes that one reagent is predicted to hit. Not given: the amount of reagent, the time to read-out.

The opening 2 entries, to show the layout:
gene | amplicon | firefly Hh reporter signal, replicate 1 | firefly Hh reporter signal, replicate 2 | Renilla reference signal, replicate 1 | Renilla reference signal, replicate 2
fd102C | DRSC17203 | 1.27e5 | 3.03e5 | 4248 | 11042
ValRS-m | DRSC10535 | 64677 | 68282 | 6631 | 4579

The listing, from the start:
gene | amplicon | firefly Hh reporter signal, replicate 1 | firefly Hh reporter signal, replicate 2 | Renilla reference signal, replicate 1 | Renilla reference signal, replicate 2
fd102C | DRSC17203 | 1.27e5 | 3.03e5 | 4248 | 11042
ValRS-m | DRSC10535 | 64677 | 68282 | 6631 | 4579
Rtf1 | DRSC04085 | 1.16e5 | 98903 | 3431 | 2642
CG8852 | DRSC00719 | 91156 | 46908 | 2548 | 4787
SoYb | DRSC02901 | 1.12e5 | 31443 | 2864 | 4775
c(3)G | DRSC15245 | 1.02e5 | 99754 | 3392 | 3714
Hmg-2 | DRSC04554 | 56035 | 55033 | 2203 | 2464
Scgbeta | DRSC15854 | 89623 | 2.15e5 | 3417 | 10688
CG7857 | DRSC10925 | 1.00e5 | – | 3703 | 2429
sala + CG43355 | DRSC01188 | 8.07e5 | 2.49e5 | 41110 | 10731
sala + CG43355 | DRSC03605 | 86765 | 70614 | 2512 | 6704
Cpr76Bc | DRSC11062 | 1.60e5 | 1.51e5 | 5797 | 3516
CG3306 | DRSC10357 | 96054 | 63997 | 3955 | 2708
CG3638 | DRSC18533 | 72528 | 1.25e5 | 2700 | 5927
Sdc | DRSC04654 | 55328 | 64002 | 1810 | 5708
Rim2 | DRSC00073 | 7.37e5 | 3.58e5 | 38544 | 13689
Rim2 | DRSC00520 | 1.04e5 | 1.45e5 | 3659 | 5011
CG15255 | DRSC01869 | 49969 (active) | 27860 | 1857 | 3125
Nepl20 | DRSC14878 | 1.03e5 | 1.36e5 | 3312 | 4748
Lip4 | DRSC02930 | 83168 | 59304 | 2225 | 5400
Or33b | DRSC03387 | 1.03e5 | 43308 | 1905 | 3984
nxf2 | DRSC10403 | 72401 | 62450 | 3303 | 2304
Nek2 | DRSC18124 | 1.29e5 | 1.08e5 | 3538 | 2694
